Some results were stated once for a whole list of compounds, not compound by compound.
Test system: Nrf2
Assay: Nrf2 functional cell-based assay (DiscoveRx)
Conditions: U2OS cells

In the case of C[Si](C)(C)N=S(=O)(/C=C/c1ccccc1Cl)c1ccncc1F (stereo not shown) [Compound 1-46, (E)-(2-chlorostyryl)(3-fluoropyridin-4-yl)((trimethylsilyl)imino)-λ^6-sulfanone], the “Nrf2 activation effect compared with Sulforaphane (in words)” value was “better Nrf2 activation effect than Sulforaphane”.

Source: patent EP4534528A1, “NOVEL SULFANONE DERIVATIVE OR PHARMACEUTICALLY ACCEPTABLE SALT THEREOF, AND USE THEREOF” (Korea Institute of Science and Technology, priority 2022, dated 2023)
